Measured values from article PMC2694809.
No constants are given. Whether binding was seen depends on the method and setting. Binding seen in cells or lysates may run through a third protein. Some binding calls cover weakened binding; strength is not graded here. Values belong to the binder of their own block, whether it stands above or below them.

Key:
Assay in all cases: co-IP; cells surface biotinylated, lysed in 1% Brij97 in D-PBS with Ca and Mg; 2 h at 4°C with mAbs (5A6, MT81, MT81w, TS151) on protein A-sepharose; non-reducing SDS-PAGE, blot with peroxidase-conjugated streptavidin
mouse CD81 (mouse) = target: T1, mouse CD81 (mouse) (UniProt P35762)
T1 sequence (chain, biotin (cell surface biotinylation with EZ-link-Sulfo-NHS-LC-biotin)): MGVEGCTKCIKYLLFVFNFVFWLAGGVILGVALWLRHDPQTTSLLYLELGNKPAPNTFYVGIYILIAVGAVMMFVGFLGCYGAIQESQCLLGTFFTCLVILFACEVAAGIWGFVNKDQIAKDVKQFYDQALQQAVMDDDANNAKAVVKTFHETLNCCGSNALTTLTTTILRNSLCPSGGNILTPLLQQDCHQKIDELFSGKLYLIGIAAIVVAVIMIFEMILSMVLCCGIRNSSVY

[1] = target: T2, human CD81 (human (endogenous in Huh-7)) (UniProt P60033)
T2 sequence (chain, biotin (cell surface biotinylation with EZ-link-Sulfo-NHS-LC-biotin)): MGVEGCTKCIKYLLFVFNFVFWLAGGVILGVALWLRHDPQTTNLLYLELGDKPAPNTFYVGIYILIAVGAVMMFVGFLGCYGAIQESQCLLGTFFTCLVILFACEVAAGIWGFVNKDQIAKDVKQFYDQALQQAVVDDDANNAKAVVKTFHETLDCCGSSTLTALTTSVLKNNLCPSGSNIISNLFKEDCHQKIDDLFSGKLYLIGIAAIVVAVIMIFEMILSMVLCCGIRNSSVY

[2] = target: T3, CD151 (human (endogenous in Huh-7)) (UniProt P48509)
T3 sequence (chain, biotin (cell surface biotinylation with EZ-link-Sulfo-NHS-LC-biotin)): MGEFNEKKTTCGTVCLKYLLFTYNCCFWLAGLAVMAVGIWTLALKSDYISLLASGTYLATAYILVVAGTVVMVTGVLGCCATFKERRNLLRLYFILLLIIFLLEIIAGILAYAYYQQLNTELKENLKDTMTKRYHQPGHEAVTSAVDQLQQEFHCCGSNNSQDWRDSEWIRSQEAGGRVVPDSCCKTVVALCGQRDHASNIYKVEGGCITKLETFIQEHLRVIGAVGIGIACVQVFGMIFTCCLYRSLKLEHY

binding (mouse CD81 (mouse)): binds
binding [1]: binds
B1: EWI-2 (protein, UniProt Q969P0 28-613)
chain: REVLVPEGPLYRVAGTAVSISCNVTGYEGPAQQNFEWFLYRPEAPDTALGIVSTKDTQFSYAVFKSRVVAGEVQVQRLQGDAVVLKIARLQAQDAGIYECHTPSTDTRYLGSYSGKVELRVLPDVLQVSAAPPGPRGRQAPTSPPRMTVHEGQELALGCLARTSTQKHTHLAVSFGRSVPEAPVGRSTLQEVVGIRSDLAVEAGAPYAERLAAGELRLGKEGTDRYRMVVGGAQAGDAGTYHCTAAEWIQDPDGSWAQIAEKRAVLAHVDVQTLSSQLAVTVGPGERRIGPGEPLELLCNVSGALPPAGRHAAYSVGWEMAPAGAPGPGRLVAQLDTEGVGSLGPGYEGRHIAMEKVASRTYRLRLEAARPGDAGTYRCLAKAYVRGSGTRLREAASARSRPLPVHVREEGVVLEAVAWLAGGTVYRGETASLLCNISVRGGPPGLRLAASWWVERPEDGELSSVPAQLVGGVGQDGVAELGVRPGGGPVSVELVGPRSHRLRLHSLGPEDEGVYHCAPSAWVQHADYSWYQAGSARSGPVTVYPYMHALDTLFVPLLVGTGVALVTGATVLGTITCCFMKRLRKR
modifications: biotin (cell surface biotinylation with EZ-link-Sulfo-NHS-LC-biotin)

binding (mouse CD81 (mouse)): binds
binding [1]: binds
B2: EWI-F (protein, UniProt Q9P2B2 26-879)
chain: VPTATLVRVVGTELVIPCNVSDYDGPSEQNFDWSFSSLGSSFVELASTWEVGFPAQLYQERLQRGEILLRRTANDAVELHIKNVQPSDQGHYKCSTPSTDATVQGNYEDTVQVKVLADSLHVGPSARPPPSLSLREGEPFELRCTAASASPLHTHLALLWEVHRGPARRSVLALTHEGRFHPGLGYEQRYHSGDVRLDTVGSDAYRLSVSRALSADQGSYRCIVSEWIAEQGNWQEIQEKAVEVATVVIQPSVLRAAVPKNVSVAEGKELDLTCNITTDRADDVRPEVTWSFSRMPDSTLPGSRVLARLDRDSLVHSSPHVALSHVDARSYHLLVRDVSKENSGYYYCHVSLWAPGHNRSWHKVAEAVSSPAGVGVTWLEPDYQVYLNASKVPGFADDPTELACRVVDTKSGEANVRFTVSWYYRMNRRSDNVVTSELLAVMDGDWTLKYGERSKQRAQDGDFIFSKEHTDTFNFRIQRTTEEDRGNYYCVVSAWTKQRNNSWVKSKDVFSKPVNIFWALEDSVLVVKARQPKPFFAAGNTFEMTCKVSSKNIKSPRYSVLIMAEKPVGDLSSPNETKYIISLDQDSVVKLENWTDASRVDGVVLEKVQEDEFRYRMYQTQVSDAGLYRCMVTAWSPVRGSLWREAATSLSNPIEIDFQTSGPIFNASVHSDTPSVIRGDLIKLFCIITVEGAALDPDDMAFDVSWFAVHSFGLDKAPVLLSSLDRKGIVTTSRRDWKSDLSLERVSVLEFLLQVHGSEDQDFGNYYCSVTPWVKSPTGSWQKEAEIHSKPVFITVKMDVLNAFKYPLLIGVGLSTVIGLLSCLIGYCSSHWCCKKEVQETRRERRRLMSMEMD
modifications: biotin (cell surface biotinylation with EZ-link-Sulfo-NHS-LC-biotin)

binding [2]: binds
B3: human CD81 (protein, UniProt P60033 1-236)
chain: T2 sequence (chain, biotin (cell surface biotinylation with EZ-link-Sulfo-NHS-LC-biotin))
modifications: biotin (cell surface biotinylation with EZ-link-Sulfo-NHS-LC-biotin)
